PubChem BioAssay AID743454, Peter MacCallum Cancer Centre | 2014
Here is an unselected part of about 18,000 reagents tested. 450 of all reagents (2.5%) count as active. 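Single biological run; no consistent viability z cut-off exists, so the class columns, not z-scores, define the calls.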 A number with no mark means an inactive call.

- Aim: 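Genes whose loss kills vorinostat-resistant colon cancer cells under vorinostat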 (primary screen)
- Cells: human HCT116-VR colon cancer cells, selected for vorinostat resistance
- Reagents: siRNA pool against human genes, 40 nM siRNA pool
- Timing: vorinostat for 24 h, read-out about 72 h after transfection
- Conditions: vorinostat at 2.5 µM final
- Read-out: 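Two measures, CellTiter-Fluor viability and luminescent caspase 3/7 activity, each as fold change against same-plate mock wells, mean of duplicates, then screen-wide robust z-score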
- Direction: viability robust z-score: higher = more viable cells than screen typical; caspase robust z-score: higher = more caspase 3/7 activity than screen typical
- Rule for the call: 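a knock-down is a hit when classed RV1 or RV2 for lowered viability, or CA1 or CA2 for caspase activation; those lethal without drug were dropped; hits were retested singly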

The opening 2 records as a preview:
{"gene": "TEX55 (testis expressed 55)", "viability hit class": "no change", "caspase hit class": "no change", "viability robust z-score": -0.78, "caspase robust z-score": 3.5}
{"gene": "TENM1 (teneurin transmembrane protein 1)", "viability hit class": "no change", "caspase hit class": "no change", "viability robust z-score": 1.29, "caspase robust z-score": 1.54}

Results, from the start:
{"gene": "TEX55 (testis expressed 55)", "viability hit class": "no change", "caspase hit class": "no change", "viability robust z-score": -0.78, "caspase robust z-score": 3.5}
{"gene": "TENM1 (teneurin transmembrane protein 1)", "viability hit class": "no change", "caspase hit class": "no change", "viability robust z-score": 1.29, "caspase robust z-score": 1.54}
{"gene": "FYN (FYN proto-oncogene, Src family tyrosine kinase)", "viability hit class": "no change", "caspase hit class": "no change", "viability robust z-score": 1.15, "caspase robust z-score": -1.01}
{"gene": "ENTPD6 (ectonucleoside triphosphate diphosphohydrolase 6)", "viability hit class": "no change", "caspase hit class": "no change", "viability robust z-score": 0.66, "caspase robust z-score": -0.78}
{"gene": "SSX9P (SSX family member 9, pseudogene)", "viability hit class": "no change", "caspase hit class": "no change", "viability robust z-score": 0.42, "caspase robust z-score": -0.26}
{"gene": "TSPEAR (thrombospondin type laminin G domain and EAR repeats)", "viability hit class": "no change", "caspase hit class": "no change", "viability robust z-score": 0.12, "caspase robust z-score": 0.52}
{"gene": "SFI1 (SFI1 centrin binding protein)", "viability hit class": "no change", "caspase hit class": "no change", "viability robust z-score": 0.49, "caspase robust z-score": 4.36}
{"gene": "CTU1 (cytosolic thiouridylase subunit 1)", "viability hit class": "no change", "caspase hit class": "no change", "viability robust z-score": -0.58, "caspase robust z-score": 0.38}
{"gene": "PRG3 (proteoglycan 3, pro eosinophil major basic protein 2)", "viability hit class": "no change", "caspase hit class": "no change", "viability robust z-score": 0.69, "caspase robust z-score": -0.32}
{"gene": "ESRP1 (epithelial splicing regulatory protein 1)", "viability hit class": "no change", "caspase hit class": "no change", "viability robust z-score": 2.15, "caspase robust z-score": 1.4}
{"gene": "SAPCD1 (suppressor APC domain containing 1)", "viability hit class": "no change", "caspase hit class": "no change", "viability robust z-score": -1.16, "caspase robust z-score": 2.71}
{"gene": "NRGN (neurogranin)", "viability hit class": "no change", "caspase hit class": "no change", "viability robust z-score": -0.07, "caspase robust z-score": 0.73}
{"gene": "DNAJC11 (DnaJ heat shock protein family (Hsp40) member C11)", "viability hit class": "no change", "caspase hit class": "no change", "viability robust z-score": -1.62, "caspase robust z-score": -0.08}
{"gene": "PITX2 (paired like homeodomain 2)", "viability hit class": "no change", "caspase hit class": "no change", "viability robust z-score": -0.52, "caspase robust z-score": 0.56}
{"gene": "CCN5 (cellular communication network factor 5)", "viability hit class": "no change", "caspase hit class": "no change", "viability robust z-score": 1.32, "caspase robust z-score": 0.08}
{"gene": "LDB1 (LIM domain binding 1)", "viability hit class": "no change", "caspase hit class": "no change", "viability robust z-score": 1, "caspase robust z-score": -0.76}
{"gene": "TRAF1 (TNF receptor associated factor 1)", "viability hit class": "no change", "caspase hit class": "no change", "viability robust z-score": -1.06, "caspase robust z-score": 1.8}
{"gene": "ZNF709 (zinc finger protein 709)", "viability hit class": "no change", "caspase hit class": "no change", "viability robust z-score": -1.17, "caspase robust z-score": 2.25}
{"gene": "MAPK11 (mitogen-activated protein kinase 11)", "viability hit class": "no change", "caspase hit class": "no change", "viability robust z-score": -0.57, "caspase robust z-score": -1.12}
{"gene": "KRTAP5-8 (keratin associated protein 5-8)", "viability hit class": "no change", "caspase hit class": "no change", "viability robust z-score": -0.16, "caspase robust z-score": 1.71}
{"gene": "NEK9 (NIMA related kinase 9)", "viability hit class": "no change", "caspase hit class": "no change", "viability robust z-score": -1.68, "caspase robust z-score": -0.29}
